In PubChem BioAssay AID743266 (National Center for Advancing Translational Sciences (NCATS), 2014):
In all, about 410,000 compounds went through this assay and about 310 (0.076%) were called active. This list was built around the results that the source calls inconclusive (neither active nor inactive); the mix of calls is not that of the screen. Calls come from the whole dose curve; as a rule, active = well fitted activation curve with a large enough effect; inconclusive = small, poorly fitted or top-dose-only effect, or another doubt; inactive = no such curve, though single readings can be large or run the other way. A potency beside an inconclusive call is a rough fit, not a confirmed value.

Protein sequences, listed by entry. Tags and fused reporters are not part of them. Lines headed by an entry give the natural chain unless they say otherwise; changes in a name come on top.
UniProt Q03431: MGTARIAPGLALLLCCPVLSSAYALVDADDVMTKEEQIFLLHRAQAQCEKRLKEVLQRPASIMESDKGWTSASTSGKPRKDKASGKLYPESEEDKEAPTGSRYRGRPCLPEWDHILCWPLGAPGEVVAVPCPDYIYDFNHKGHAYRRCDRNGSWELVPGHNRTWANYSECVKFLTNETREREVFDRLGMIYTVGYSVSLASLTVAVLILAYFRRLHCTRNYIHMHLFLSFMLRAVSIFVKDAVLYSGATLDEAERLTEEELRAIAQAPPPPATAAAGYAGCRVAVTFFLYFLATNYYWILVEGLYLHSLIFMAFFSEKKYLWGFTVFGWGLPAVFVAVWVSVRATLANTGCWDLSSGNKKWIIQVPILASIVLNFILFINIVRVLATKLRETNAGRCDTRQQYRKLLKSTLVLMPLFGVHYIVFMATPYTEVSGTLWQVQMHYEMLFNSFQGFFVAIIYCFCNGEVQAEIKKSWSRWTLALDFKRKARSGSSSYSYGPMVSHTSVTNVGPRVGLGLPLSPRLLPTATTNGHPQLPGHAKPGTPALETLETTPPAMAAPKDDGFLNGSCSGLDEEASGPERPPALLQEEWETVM

Each compound was assayed against Parathyroid hormone/parathyroid hormone-related peptide receptor (Homo sapiens) (UniProt Q03431) (assay: qHTS for PTHR1 Agonists: Primary Screen). Settings: HEK293 GP2 PTHR1 cells, GloSensor cAMP luminescence, 1 h; activation: at 115 µM (top of the series) unless noted; series mostly up to 115 µM.
How it was run: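 HEK-293-derived GP2 cells expressing PTHR1 and a GloSensor cAMP reporter, 3,000/well, plated overnight, given luciferin plus IBMX (each 0.5 mM as added) for 1 h at 37 °C, then compound for 1 h at 37 °C. Luminescence was read after 15 min at room temperature.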
Note: nearly all actives have a fitted effect of over 55% in size.
Potency is the fitted concentration of half-maximal effect.

Structure (SMILES) | Potency | outcome | activation
O=C(O)c1cccc(S(=O)(=O)Nc2cccc(S(=O)(=O)N3CCCCCC3)c2)c1 | inconclusive: 17.8 µM [activator, full curve] |  | 
O=C(O)CCN1Cc2ccccc2C1=O | inconclusive: 126 µM [activator, single point] |  | 
O=c1oc2ccccc2c2[nH]ccc12 | inconclusive: 5.01 µM [activator, partial curve, poor fit] |  | 
Cc1ccc(-n2nnnc2SCC(=O)NCCc2ccccc2)cc1C |  | inactive | 
CCN(CC)CCNC(=O)c1ccc(NC(=O)C2CC(=O)N(CCc3ccc(OC)c(OC)c3)C2)cc1 (centres undefined) |  | inactive | 
c1nc(NCC2CCCO2)c2[nH]cnc2n1 (centres undefined) |  |  | inconclusive: 50.3% [activator] [at 57.5 µM]
O=C(NCc1ccco1)C(C(=O)c1ccc(F)cc1)n1ccccc1=O (centres undefined) | inconclusive: 39.8 µM [activator, single point] |  | 
O=C1N[C@@H](Cc2c[nH]c3ccccc23)COC(=O)[C@H](Cc2ccc(F)cc2)C/C=C\C[C@H]1CC(=O)N(CCO)Cc1ccccc1 | inconclusive: 50.1 µM [activator, partial curve, poor fit] |  | 
O=C(NC(=S)N1CCCCCC1)c1ccccc1Cl | inconclusive: 141 µM [activator, single point] |  | 
COC(=O)c1ccc(C(=O)OC)c(NC(=O)CSCc2ccc(Br)cc2)c1 |  |  | inactive: -24.5%
CCOC(=O)c1cccc(NC(=O)Nc2c(C)n(C)n(-c3ccccc3)c2=O)c1 |  |  | inactive: -13.1%
CC1=C(C(=O)N2CCCCCC2)CC(CC(=O)NCC2CCCCC2)C(=O)N1Cc1ccccc1 (centres undefined) |  | inactive | 
O=C(COC(=O)c1cnccn1)Nc1c(Cl)cc(Cl)cc1Cl | inconclusive: 2 µM [activator, full curve] |  | 
Cc1c(C(=O)NCc2ccc(C(C)C)cc2)sc(=O)n1Cc1cccc(F)c1 | inconclusive: 7.08 µM [activator, partial curve, poor fit] |  | 
O=C1NC[C@H](Cc2ccc(O)cc2)N(C[C@@H]2CCCN2C[C@H](Cc2ccccc2)N2C[C@H](Cc3ccccc3)N(CCc3ccccc3)C(=O)C2=O)C1=O | inconclusive: 44.7 µM [activator, full curve, poor fit] |  | 
COCCNc1nc(NCCOC)c2sc(-c3ccccc3)cc2n1 | inconclusive: 11.2 µM [activator, full curve, poor fit] |  | 
Fc1ccc(Nc2nc(-c3cccc(Cl)c3)c3c(n2)-c2ccccc2OC3)c(F)c1 | inconclusive: 141 µM [activator, single point] |  | 
CCc1ccc(NC(=O)CSc2nc(-c3ccc(C)cc3)nc3c2Cc2c(CO)cnc(C)c2O3)cc1 | inconclusive: 39.8 µM [activator, partial curve, poor fit] |  | 
CC1(C)Cc2cccc(OCC(=O)OCc3nnc(-c4ccccc4)o3)c2O1 | inconclusive: 126 µM [activator, single point] |  | 
COc1ccc(/C=C2\SC(=O)N(CCC(=O)Nc3ccc(S(=O)(=O)Nc4nccs4)cc3)C2=O)cc1 |  |  | inactive: -6.26%
CCCCc1ccc(/C(C)=N/Nc2cc(N3CCOCC3)nc(C)n2)cc1 |  | inactive | 
COc1ccc(-n2c(=S)[nH]c3cc(C(=O)NCCCN4CCOCC4)ccc3c2=O)cc1OC | inconclusive: 126 µM [activator, single point] |  | 
CCCn1c(N2CCN(CC(=O)NCc3cccs3)CC2)nc2ccccc21 |  |  | inactive: -1.62%

Structure (SMILES) | Potency | outcome | activation
O=C1C2C(c3ccccc3)CC=CC2[C@H](c2cccc([N+](=O)[O-])c2)N1Cc1ccccc1 (some centres undefined) |  |  | inactive: -50.3%
COc1cc(OC)c(OC)cc1CNCc1ccco1 | inconclusive: 141 µM [activator, single point] |  | 
O=C(N/N=C/c1ccc(OC(F)F)cc1OC(F)F)c1ccc(Br)cc1 |  |  | inactive: -33.1%
CCN(C1CCCCC1)S(=O)(=O)c1cc2c3c(c1)CCN3C(=O)CC2 | inconclusive: 50.1 µM [activator, partial curve, poor fit] |  | 
COc1cc2c(cc1OC)n(CC(=O)c1cc(C)ccc1C)c(=O)n1nc(CCn3nc(C)cc3C)nc21 |  |  | inactive: -21.6%
CC#CCCCC(=O)Nc1ccc(C(=O)O)cc1 | inconclusive: 3.98 µM [activator, full curve, poor fit] |  | 
CC(=O)Nc1ccccc1-c1nc2ccccc2n(CC(=O)Nc2cccc(C)c2C)c1=O | inconclusive: 126 µM [activator, single point] |  | 
CCOC(=O)N1CCN(C(=O)CN(Cc2ccccc2)S(C)(=O)=O)CC1 | inconclusive: 35.5 µM [activator, single point] |  | 
N/C(=N\OC(=O)c1ccco1)c1ccccc1 |  |  | inactive: -28.6%
CC1(Oc2cccc(C#N)c2)CCN(Cc2csc3ccccc23)C1 (centres undefined) |  |  | inactive: 6.27%
CC(C)(C)c1cc(CCC(=O)NNC(=O)c2ccco2)cc(C(C)(C)C)c1O | inconclusive: 158 µM [activator, single point] |  | 
Cc1ccccc1C(=O)N1CCN(c2ccc(NC(=S)NC(=O)c3cccs3)cc2)CC1 |  |  | inactive: -2.3%
CCCCC[C@H](O)/C=C/[C@@H]1[C@@H](C/C=C\CCCC(=O)O)[C@@H](O)C[C@H]1O | inconclusive: 15.8 µM [activator, partial curve] |  | 
COc1ccccc1/C=N/NC(=O)CC(=O)NC1CCCCC1 | inconclusive: 3.55 µM [activator, partial curve, poor fit] |  | 
COCCCNC(=S)N1CCN(Cc2ccc3c(c2)OCO3)CC1 |  |  | inconclusive: 30.7% [activator]
CC[C@@H](C)[C@H](NC(=O)Cc1c(C)c2c(cc(C)c3c(C)c(C)oc32)oc1=O)C(=O)O |  | inactive | 
CC12CCC(C(=O)NCCCN3CCOCC3)(C(Br)C1=O)C2(C)C (centres undefined) |  |  | inconclusive: 51.2% [activator]
COc1ccc(C(=O)N(C)Cc2nc3ccccc3c(=O)[nH]2)cc1S(=O)(=O)N1CCCC1 | inconclusive: 126 µM [activator, single point] |  | 
CNC(=O)C1CCC(Cn2c(=O)c3sccc3n(CC(=O)NCc3ccccc3)c2=O)CC1 (centres undefined) | inconclusive: 158 µM [activator, single point] |  | 
CC(=O)NC(=S)NNC(=O)COc1ccc(Br)cc1 | inconclusive: 14.1 µM [activator, partial curve] |  | 
S=C(NC12CC3CC(CC(C3)C1)C2)N1CCOCC1 | inconclusive: 50.1 µM [activator, partial curve, poor fit] |  | 
COc1ccccc1NC(=O)C(=O)NCC(c1ccc2c(c1)OCO2)N1CCN(C)CC1 (centres undefined) | inconclusive: 141 µM [activator, single point] |  | 
Cc1cc(C)n2nc(SCC(=O)N(C)Cc3ccccc3)nc2n1 |  |  | inconclusive: 24.9% [activator] [at 57.5 µM]

Structure (SMILES) | Potency | outcome | activation
CCN(CCCNC(=O)c1ccc(Sc2ccc(Cl)cc2)c(NC(C)=O)c1)c1ccccc1 |  |  | inactive: -29%
CCN(CC)S(=O)(=O)c1nnc(NC(=O)c2ccc(Br)cc2)s1 |  |  | inactive: -31.6%
O=[N+]([O-])c1ccc(O)c(C=Nc2cccc3ncccc23)c1 |  |  | inactive: -5.66%
COc1ccc(-n2nc3c(N4CCC(C(=O)NCCc5ccccc5)CC4)nnc(C)c3c2C)cc1 |  |  | inactive: -11.1%
Cc1ccc(CCNC(=O)c2ccc3nc4ccc(Cl)cc4c(=O)n3c2)cc1 | inconclusive: 44.7 µM [activator, single point] |  | 
CC(Nc1cc(=O)n(C)c(=O)n1C)c1ccccc1 (centres undefined) | inconclusive: 56.2 µM [activator, single point] |  | 
COc1ccc2cc(CNc3ccc(C)cc3)c(=O)n(CC(=O)Nc3cccc(Cl)c3C)c2c1 |  |  | inactive: -2.03%
O=C(CC(c1ccccc1)c1cc(Br)ccc1O)NCCCN1CCOCC1 (centres undefined) | inconclusive: 89.1 µM [activator, partial curve, poor fit] |  | 
O=C(O)CC1(CC(=O)NCc2cccc(Cl)c2)CCCCC1 | inconclusive: 89.1 µM [activator, partial curve, poor fit] |  | 
O=C(O)C1=C[C@@H](c2ccc3c(c2)OCO3)C[C@@H](OCCCCO)O1 | inconclusive: 39.8 µM [activator, partial curve, poor fit] |  | 
CCCN1Cc2cccc(C(=O)NCc3ccc4c(c3)OCO4)c2C1=O | inconclusive: 5.01 µM [activator, partial curve, poor fit] |  | 
COc1ccc(C(=O)C2CCN(C(=O)c3ccc(F)cc3)CC2)cc1 |  |  | inactive: -33.2%
CCc1ccc(NC(=O)Cn2c(=O)n(-c3cc(C)cc(C)c3)c(=O)c3oc4ccccc4c32)cc1 | inconclusive: 126 µM [activator, single point] |  | 
O=C(Oc1ccc(=O)n(-c2ccccc2)n1)c1ccc(F)cc1 |  |  | inconclusive: 30.3% [activator]
CC1CCCN(CC(O)COc2ccc(-c3ccccc3)cc2)C1 (centres undefined) |  |  | inconclusive: 63% [activator]
COc1ccc(C(=O)Nc2ccccc2NC(=O)c2ccc(OC)cc2)cc1 |  |  | inactive: -41.3%
COC(=O)c1cccc(S(=O)(=O)N2CCC(C)CC2)c1 | inconclusive: 50.1 µM [activator, single point] |  | 
Cn1cnnc1SCC(=O)Nc1ccc(Oc2ccccc2)cc1 |  |  | inactive: -20.4%
CCCCCc1c(-c2ccc(F)cc2F)ncn1CCc1ccccc1OC |  |  | inactive: -21.5%
Cc1cc(CN2CCCC(CNC(=O)c3ccc(F)cc3)C2)cc(C)c1O (centres undefined) |  |  | inconclusive: 37.3% [activator]
CCN(CC)C(=O)Cn1cc(S(=O)(=O)CC(=O)Nc2ccc3c(c2)OCCO3)c2ccccc21 |  |  | inactive: -22.4%
Cc1ccc(C2CCN(C(=O)Nc3ccc(C)c(C)c3)C2)cc1 (centres undefined) |  |  | inactive: -19.5%
COc1cccc(C(=O)Nc2ccc(S(=O)(=O)N(Cc3ccccc3)c3ccccc3)cc2)c1 |  |  | inactive: -14.3%

Arranged by SMILES length (largest number first): some entries from above
Structure (SMILES) | Potency | outcome | activation
CCc1ccc(NC(=O)Cn2c(=O)n(-c3cc(C)cc(C)c3)c(=O)c3oc4ccccc4c32)cc1 | inconclusive: 126 µM [activator, single point] |  | 
Cc1cc(CN2CCCC(CNC(=O)c3ccc(F)cc3)C2)cc(C)c1O (centres undefined) |  |  | inconclusive: 37.3% [activator]
COc1ccc(C(=O)C2CCN(C(=O)c3ccc(F)cc3)CC2)cc1 |  |  | inactive: -33.2%
